We go through 5 molecules from article PMC10435237.

By UniProt entry, the sequences of proteins in these tests, tags left out. Where a name states a change or a piece, a line headed by the entry shows the natural chain unless it says otherwise.
UniProt Q86U44: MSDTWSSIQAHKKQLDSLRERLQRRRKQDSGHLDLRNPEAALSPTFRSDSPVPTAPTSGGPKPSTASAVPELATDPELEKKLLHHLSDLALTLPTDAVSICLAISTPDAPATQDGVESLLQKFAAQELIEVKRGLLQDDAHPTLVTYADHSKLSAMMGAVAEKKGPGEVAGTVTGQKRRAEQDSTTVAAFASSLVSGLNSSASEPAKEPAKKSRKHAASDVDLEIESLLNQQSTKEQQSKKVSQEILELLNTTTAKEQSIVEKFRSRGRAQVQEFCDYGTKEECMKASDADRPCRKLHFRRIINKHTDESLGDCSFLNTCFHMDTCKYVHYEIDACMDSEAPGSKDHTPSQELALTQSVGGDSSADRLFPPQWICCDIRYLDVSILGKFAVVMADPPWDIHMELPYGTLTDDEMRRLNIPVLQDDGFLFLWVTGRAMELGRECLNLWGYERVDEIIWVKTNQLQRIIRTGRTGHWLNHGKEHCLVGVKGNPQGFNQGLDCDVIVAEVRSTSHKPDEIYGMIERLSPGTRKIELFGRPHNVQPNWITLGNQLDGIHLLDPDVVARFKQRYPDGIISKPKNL
UniProt P17980: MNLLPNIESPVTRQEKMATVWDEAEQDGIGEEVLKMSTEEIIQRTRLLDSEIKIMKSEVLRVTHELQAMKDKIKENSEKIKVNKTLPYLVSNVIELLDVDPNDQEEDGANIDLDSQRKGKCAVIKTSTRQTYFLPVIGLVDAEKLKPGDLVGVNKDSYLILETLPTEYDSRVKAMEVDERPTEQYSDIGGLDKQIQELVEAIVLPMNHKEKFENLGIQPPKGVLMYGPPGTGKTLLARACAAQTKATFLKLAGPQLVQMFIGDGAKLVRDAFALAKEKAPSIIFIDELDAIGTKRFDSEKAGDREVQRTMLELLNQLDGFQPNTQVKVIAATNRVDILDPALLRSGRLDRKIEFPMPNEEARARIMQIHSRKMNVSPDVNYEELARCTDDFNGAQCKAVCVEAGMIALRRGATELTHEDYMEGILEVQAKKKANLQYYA
UniProt P62195: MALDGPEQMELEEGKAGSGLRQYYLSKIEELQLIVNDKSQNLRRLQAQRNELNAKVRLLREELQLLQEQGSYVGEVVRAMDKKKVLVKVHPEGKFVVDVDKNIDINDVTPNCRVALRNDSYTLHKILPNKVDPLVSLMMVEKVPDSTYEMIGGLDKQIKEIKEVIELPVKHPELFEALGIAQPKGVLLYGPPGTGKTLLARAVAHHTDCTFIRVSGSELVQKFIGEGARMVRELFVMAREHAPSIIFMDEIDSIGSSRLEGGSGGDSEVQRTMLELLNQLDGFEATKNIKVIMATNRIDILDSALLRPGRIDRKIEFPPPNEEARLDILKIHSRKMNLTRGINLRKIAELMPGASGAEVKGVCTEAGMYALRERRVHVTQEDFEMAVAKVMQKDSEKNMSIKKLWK
UniProt O75832: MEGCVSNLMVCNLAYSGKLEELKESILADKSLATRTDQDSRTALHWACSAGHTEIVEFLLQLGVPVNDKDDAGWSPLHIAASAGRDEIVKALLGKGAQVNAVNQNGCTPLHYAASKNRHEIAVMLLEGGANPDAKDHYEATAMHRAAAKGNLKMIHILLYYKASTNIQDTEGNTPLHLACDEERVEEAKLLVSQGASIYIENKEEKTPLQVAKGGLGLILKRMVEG

Test [1] has as its target METTL3-WT-Flag (human) (UniProt Q86U44). Description: co-IP; 293T cells with METTL3 shRNA, transfected with full-length METTL3 or its truncations 1–238 and 239–580 (Figure 5e, Figure 5—figure supplement 1a–c).
Test [2] shares this target. The test is described as follows: co-IP; T47D cells infected with METTL3-Flag or control vector; IP of METTL3-Flag, immunoblot (Figure 7g).
In the next test the target is METTL14, transfected (UniProt Q9HCE5). The test is described as follows: co-IP; 293T cells transfected with METTL3, METTL14 or WTAP containing different tags (Figures 5a, c, g-k); with or without RNase or DNase (5c); with or without shRNA against METTL3 (5g, 5i), METTL14 (5h) or WTAP (5j, 5k); lysis in EBC buffer, washes in NETN buffer.

These are yes or no findings as the source states them, for the method shown. In cells and extracts the contact can be indirect. Some results given as binding are weak or reduced against the parent protein; the word gives no strength.

“METTL3 C-terminal (239–580) truncation (from UniProt Q86U44 239-580) (domain or fragment)”: in the test with METTL3-WT-Flag (human) [1], the binding entry is “binds”.

Regarding PSMC3 (from UniProt P17980 1-439), in the test with METTL3-WT-Flag (human) [2], the binding result was “binds”.

As for PSMC5 (from UniProt P62195 1-406), the binding entry in the test with METTL3-WT-Flag (human) [2] was “binds”.

On to PSMD10 (from UniProt O75832 1-226), for which the binding result with METTL3-WT-Flag (human) [2] is recorded as “binds”.

B1: METTL14, transfected (protein, UniProt Q9HCE5 1-456)
chain: MDSRLQEIRERQKLRRQLLAQQLGAESADSIGAVLNSKDEQREIAETRETCRASYDTSAPNAKRKYLDEGETDEDKMEEYKDELEMQQDEENLPYEEEIYKDSSTFLKGTQSLNPHNDYCQHFVDTGHRPQNFIRDVGLADRFEEYPKLRELIRLKDELIAKSNTPPMYLQADIEAFDIRELTPKFDVILLEPPLEEYYRETGITANEKCWTWDDIMKLEIDEIAAPRSFIFLWCGSGEGLDLGRVCLRKWGYRRCEDICWIKTNKNNPGKTKTLDPKAVFQRTKEHCLMGIKGTVKRSTDGDFIHANVDIDLIITEEPEIGNIEKPVEIFHIIEHFCLGRRRLHLFGRDSTIRPGWLTVGPTLTNSNYNAETYASYFSAPNSYLTGCTEEIERLRPKSPPPKSKSDRGGGAPRGGGRGGTSAGRGRERNRSNFRGERGGFRGGRGGAHRGGFPPR
With B1, the binding entry with METTL14, transfected is “binds”.
